# Experimental data: PubChem BioAssay AID1224828 (NIAID, 2016)
# Test: 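Find genes required for NF-kappaB p65 moving into the nucleus after LPS in mouse macrophages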 (primary screen)
# Cell system: mouse RAW264.7 G9 macrophage reporter cells (GFP-p65, Tnf promoter-mCherry)
# Knock-down reagent: siRNA pool against mouse genes, 100 nM
# Duration: 2 days siRNA transfection, then 40 min LPS before fixation
# Challenge: LPS (Salmonella minnesota R595) at 10 ng/ml
# Read-out: 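Imaged p65 nuclear translocation ratio, normalised to the plate median, converted to robust z-scores and averaged across two replicates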
# Direction: p65 translocation robust z-score: higher = more nuclear NF-kappaB p65 after LPS than the plate median; nuclear/cytoplasmic p65 ratio: higher = more nuclear NF-kappaB p65
# Rule for the call: 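Called active when z exceeds 3.3 or falls under -1.56 (median of Tlr4 controls), giving activity score of at least 50; no calls for control wells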
# Meaning of the calls: active = hit (p65 shift raised or lowered); inactive = no clear change
# Here is one part, drawn at random, of about 17,000 deposited reagents. 762 of them (4.5%) count as active. 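Active calls include both raised and lowered p65 entry, mostly lowered; wells with fewer than 50 cells lack a z-score.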 The raw values are shown without normalisation. A number with no mark means an inactive call.
gene knocked down,p65 translocation robust z-score,"nuclear/cytoplasmic p65 ratio, rep 1","nuclear/cytoplasmic p65 ratio, rep 2",low cell count flag
Tfcp2 (transcription factor CP2),1.05,1.65,1.68,enough cells to score
Or5d41 (olfactory receptor family 5 subfamily D member 41),-0.67,1.66,1.39,enough cells to score
Fpgs (folylpolyglutamyl synthetase),0.72,1.71,1.55,enough cells to score
"Tas2r107 (taste receptor, type 2, member 107)",0.34,1.54,1.66,enough cells to score
Ly6g6c (lymphocyte antigen 6 family member G6C),-1.16,1.48,1.42,enough cells to score
Or14j1 (olfactory receptor family 14 subfamily J member 1),0.99,1.76,1.55,enough cells to score
Gas6 (growth arrest specific 6),,1.57,1.45,fewer than 50 cells per well; well left out of scoring
Selenon (selenoprotein N),0.63,1.48,1.34,enough cells to score
Or5p72 (olfactory receptor family 5 subfamily P member 72),0.41,1.51,1.31,enough cells to score
Or5l14 (olfactory receptor family 5 subfamily L member 14),0.37,1.69,1.66,enough cells to score
Hmbs (hydroxymethylbilane synthase),0.32,1.44,1.43,enough cells to score
"Col8a1 (collagen, type VIII, alpha 1)",-1.42,1.22,1.25,enough cells to score
Gfus (GDP-L-fucose synthase),,1.22,1,fewer than 50 cells per well; well left out of scoring
Cfd (complement factor D),-1.27,1.43,1.51,enough cells to score
Kif13a (kinesin family member 13A),-0.13,1.43,1.39,enough cells to score
H2ac6 (H2A clustered histone 6),0.23,1.63,1.42,enough cells to score
Kin (Kin17 DNA and RNA binding protein),-0.92,1.38,1.24,enough cells to score
Or5t7 (olfactory receptor family 5 subfamily T member 7),0.36,1.69,1.65,enough cells to score
Snip1 (Smad nuclear interacting protein 1),0.2,1.6,1.56,enough cells to score
Eya3 (EYA transcriptional coactivator and phosphatase 3),0.5,1.58,1.39,enough cells to score
Cept1 (choline/ethanolaminephosphotransferase 1),1.36,1.75,2.06,enough cells to score
Saa2 (serum amyloid A 2),-0.61,1.46,1.47,enough cells to score
Cenpu (centromere protein U),0.27,1.63,1.68,enough cells to score
"Gnb2 (guanine nucleotide binding protein (G protein), beta 2)",-0.33,1.78,1.51,enough cells to score
Lrrc19 (leucine rich repeat containing 19),0.79,1.52,1.67,enough cells to score
Dnajb8 (DnaJ heat shock protein family (Hsp40) member B8),1.08,1.63,1.48,enough cells to score
Ctnnd1 (catenin delta 1),-0.3,1.36,1.34,enough cells to score
Tgtp1 (T cell specific GTPase 1),,1.4,1.06,fewer than 50 cells per well; well left out of scoring
Tmem179 (transmembrane protein 179),0.38,1.58,1.82,enough cells to score
Tmem132d (transmembrane protein 132D),1.53,1.78,2.08,enough cells to score
Or5p67 (olfactory receptor family 5 subfamily P member 67),0.97,1.35,1.38,enough cells to score
Prmt1 (protein arginine N-methyltransferase 1),-0.55,1.35,1.31,enough cells to score
Zfp3 (zinc finger protein 3),0.92,1.79,1.78,enough cells to score
"Tnfsf15 (tumor necrosis factor (ligand) superfamily, member 15)",0.22,1.58,1.52,enough cells to score
Dynlrb2 (dynein light chain roadblock-type 2),-2.83 (active),1.06,1.04,enough cells to score
Htr5b (5-hydroxytryptamine (serotonin) receptor 5B),0.18,1.58,1.45,enough cells to score
Cxcl16 (C-X-C motif chemokine ligand 16),-0.23,1.57,1.71,enough cells to score
Zfp473 (zinc finger protein 473),-0.43,1.52,1.7,enough cells to score
Ccndbp1 (cyclin D-type binding-protein 1),-0.79,1.35,1.29,enough cells to score
"Senp8 (SUMO peptidase family member, NEDD8 specific)",,1.24,1.05,fewer than 50 cells per well; well left out of scoring
